Structures are written as SMILES. The list shows a part of the results. The main result of the screen is listed elsewhere. These columns were measured beside it and carry no call. Most of these compounds were active or inconclusive in the main read-out, so they are no random draw. Words in brackets tell the shape of the fitted curve; partial curves, single points and poor fits give uncertain potencies.

The nature of this assay: IkB Signaling. Particulars: ABC-DLBCL IkBa-CBG/CBR dual luciferase ratio (green luciferase fused to IkBa over red control in OCI-Ly3 lymphoma cells), 4 h. From the text:
NIH Molecular Libraries Screening Centers Network [MLSCN]
NIH Chemical Genomics Center [NCGC]
Nuclear factor kappa-B (NF-kappa-B) plays an important role in normal B cell development and survival. Diffuse large B cell lymphoma (DLBCL) is the most commonly observed type of non-Hodgkin's lymphoma. Gene expression analysis has identified an activated B cell-like subtype of DLBCL (ABC-DLBCL) which expresses known NF-kappa-B target genes. […] However, targets upstream of IKK have been largely unexplored and so nodes upstream of IKK in the NF-kappa-B pathway remain untested due to the lack of chemical probes.
A cell-sensor assay for I-kappa-B-alpha stabilization was developed with NIH investigator Dr. R. Eric Davis in Dr. Louis M. Staudt's laboratory. The assay uses green (CBG68) and red (CBR) emitting beetle luciferases [Chroma-Glo(TM) developed by Promega Corp.] where the green luciferase is fused to I-kappa-B-alpha and the red luciferase is present in its native state. Both luciferase genes are stably present in the OCI-Ly3 human ABC DLBCL cell line, but their expression is under the control of tetracycline-inducible promoters. Following the addition of doxycycline to induce expression of the luciferases, the green luminescence in control cultures rises only slowly because the CBG fusion partner I-kappa-B-alpha is targeted by IKK activity for rapid degradation. In contrast, green luminescence rises rapidly in the presence of proteasome inhibitors or IKK inhibitors. The rise in red luminescence of CBR is not affected by proteasome or IKK inhibitors, and serves as normalization for cell number and nonspecific effects. Compounds were screened as a concentration-titration series that ranged from 57 uM to 0.7 nM.
NCGC Assay Protocol Summary:
Cells were seeded in 1536-well plates at 5000 cells/3ul in IMDM medium containing 0.5% FBS, w/o phenol red, L-glutamine, 25 mM HEPES, 3 mg/ml sodium bicarbonate. After centrifugation for 1 min. at 1000 rpm, 23 nl of compounds or DMSO were delivered to each well using a pin tool. Then 1ul 80ng/ml doxycycline was dispensed into white solid 1536-well plates and the plates were incubated at 37C/5% C02 in a cell incubator for 4 hrs. Then 4 ul Chroma-Glo luminescent substrate mix (Promega) was added to each well. The plate was incubated at R.T. for 10-15 min. The plates were measured on a ViewLux plate reader for green luminescence (540/20 nm filter) and red luminescence (618/8 nm filter). The green and red luminescent signals were corrected for red and green luminescence filter overlap using previously determined filter calibration constants (determined using the procedure outlined in the Promega Technical Manual). The %Activity was determined from the ratio of corrected green/red luminescent values. Green luminescent and ratio %Activity was determined by normalizing to the difference in signal between basal cells (0% Activity) and cells incubated with 10 uM of the proteasome inhibitor MG-132 (100% Activity). Red luminescent %Activity was normalized to the difference between red luminesence in basal cells (0%Activity) and zero luminescence (-100% Activity).
Concentration-response curves were fitted to the signals arising from the green luminescence (I-kappa-B-alpha-luciferase fusion; IkB-luc) and the red luminescence (unfused luciferase; luc) as well as the calculated ratio. The concentration-effect curves were then classified based on curve quality (r2), response magnitude and degree of measured activity. Compounds were then categorized based on their concentration-response curves for all three datasets (Ikb-luc, luc and ratio).
Keywords: IKK, I-kappa-B, IkB, IkBa, cytotoxicity, luminescence, MLSMR, MLSCN, NIH Roadmap, qHTS, NCGC

The mark [1] stands for this setting: measured here: control luc red channel unless noted.

Take `CC(Nc1ccc(-c2nc(-c3ccco3)no2)cc1[N+](=O)[O-])c1ccccc1` (stereo unspecified): the AC50 under setting [1] was 6.31 µM [rising, partial curve, poor fit].
With `CC(C)(C)C(=O)Nc1cccc(C(=O)OCc2cc(=O)n3nc(C4CC4)sc3n2)c1`, the AC50 under setting [1] was 12.6 µM [falling, partial curve].
`COc1cc(NC(=O)c2cc3ccc4cccnc4c3[nH]2)cc(OC)c1OC`: the half-maximal activity concentration (AC50) under setting [1] is 1 µM [falling, full curve].
On to `CCOC(=O)c1ccc(NC(=O)CSc2nc(-c3cccs3)cc(C(F)(F)F)c2C#N)cc1`, for which, under setting [1], the AC50 is 0.158 µM [falling, full curve, poor fit].
Turning to `COC(=O)CN1C(=O)CSc2ccc(S(=O)(=O)Nc3c(C)cc(C)cc3C)cc21`, the AC50 under setting [1] was 31.6 µM [falling, partial curve, poor fit].
Still for that read-out and setting: the figure for `CCS(=O)(=O)c1nc(S(=O)(=O)c2ccc(C)cc2)c(NCC(C)C)s1` is 20 µM [falling, single point]; for `CCOC(=O)N1CCc2c(sc(NCc3sccc3C)c2C(=O)Nc2cc(Cl)ccc2OC)C1` it is 12.6 µM [falling, partial curve, poor fit]; for `O=C1CN(C(=O)COc2ccc(Cl)cc2)C(c2ccc(F)cc2)c2cc(Br)ccc2N1` (stereo unspecified) it is 12.6 µM [falling, partial curve].
Consider `CC(=O)C1=C(c2ccc(Cl)c(Cl)c2)N(C(C)=O)n2cnnc2S1`, for which, under setting [1], the concentration at half-maximal activity (AC50) is 25.1 µM [falling, partial curve].
The same measure, in the same setting: the figure for `Cc1ccc(NC(=O)N2CCN(Cc3nc4ccc(C)cc4o3)CC2)c(Cl)c1` is 31.6 µM [falling, single point].
As for `COc1cc(OC)cc(C(=O)Nc2ccc3c(c2)OCCO3)c1`, the AC50 under setting [1] is 20 µM [falling, partial curve].
Take `COc1ccc(-c2nc3sc(CCNC(=O)C(=O)Nc4ccc(C)c(F)c4)c(C)n3n2)cc1`: under setting [1], the AC50 was 10 µM [falling, partial curve].
`CCc1ccc(S(=O)(=O)c2cn(C)c3cc(F)c(F)cc3c2=O)cc1`: the AC50 under setting [1] is 31.6 µM [falling, single point].
With `CCOc1ccc(NC(=O)Cn2c(=O)n(Cc3ccco3)c(=O)c3ccc(C(=O)NC4CCCC4)cc32)cc1`, the AC50 under setting [1] was 39.8 µM [rising, single point] [measured here: IkB-luc green channel].
Take `O=C1CC(c2cccc(Cl)c2Cl)c2cc3c(cc2N1)OCCO3` (stereo unspecified): under setting [1], the AC50 is 31.6 µM [falling, partial curve].
On to `CC(=O)c1ccc(N2CCN(c3nc4ccccc4c4nc(-c5cccc(C)c5)nn34)CC2)cc1`, for which, under setting [1], the AC50 is 0.316 µM [rising, full curve, poor fit].
On to `O=C(C1CCCN(S(=O)(=O)c2ccc(Cl)cc2)C1)N(Cc1cccs1)C1CC1` (stereo unspecified), for which the AC50 under setting [1] was 39.8 µM [falling, single point].
Regarding `CCc1cc(-c2[nH]ncc2-c2ccc3c(c2)OCO3)c(O)cc1O`, the AC50 under setting [1] is 10 µM [falling, partial curve].
As for `Cc1oc(-c2ccccc2Cl)nc1CS(=O)CC(=O)NCc1ccccc1Cl` (stereo unspecified), the AC50 under setting [1] was 3.98 µM [falling, single point].
Still for that read-out and setting: the result for `CCOC(=O)c1ccc(NC(=O)COc2cccc3c(=O)n(C)ccc23)cc1` reads 20 µM [falling, single point].
`Cc1cc(Cl)ccc1OCC(=O)N1CCC(c2nc3ccccc3o2)CC1`: under setting [1], the AC50 is 25.1 µM [falling, partial curve].
For `CCOc1ccc(NC(=O)N2CCC(c3ccc(C)cc3)C2)cc1` (stereo unspecified), the AC50 under setting [1] was 3.98 µM [rising, single point].
For the compound `COc1ccccc1CNC(=O)CSCc1nc(-c2ccc(OC)c(OC)c2)oc1C`, the AC50 under setting [1] was 31.6 µM [falling, single point].
Take `CCCCNC(=O)c1sc(=S)n2c1[nH]c(=O)c1ccccc12`: the AC50 under setting [1] is 5.01 µM [falling, full curve].
For `O=C(Nc1cccc(C(=O)OCc2cc(=O)n3c4c(sc3n2)CCCC4)c1)c1cccc(Cl)c1`, the AC50 under setting [1] was 1 µM [falling, full curve].
Consider `Cc1nc(-c2ccc(S(=O)(=O)N(Cc3ccccc3)C(C)C)cc2)co1`, for which the AC50 under setting [1] is 15.8 µM [falling, partial curve].
For the compound `CCOc1ccc(CCNC(=O)c2ccc3c(c2)nc2n3CCOC2)cc1OCC`, the AC50 under setting [1] was 3.16 µM [rising, partial curve, poor fit].
With `CC(C)OCCCNC(=O)CCCn1c(SCC(N)=O)nc2c(sc3ccccc32)c1=O`, the AC50 under setting [1] is 0.01 µM [falling, full curve, poor fit].
As to `COc1ccccc1N1CCN(C(=O)c2ccc3nc(-c4ccco4)c(-c4ccco4)nc3c2)CC1`, the AC50 under setting [1] was 10 µM [falling, partial curve].
In the case of `O=C(CCS(=O)(=O)c1nc(-c2cccs2)cc(C(F)(F)F)n1)Nc1ccc(F)c(Cl)c1`, under setting [1], the AC50 was 3.16 µM [falling, full curve].
In the case of `Cc1ccc(NC(=O)C2CCN(S(=O)(=O)c3ccc4c(c3)CCCN4C(=O)C3CCC3)CC2)cc1`, the half-maximal activity concentration (AC50) under setting [1] was 39.8 µM [falling, single point].
`O=C(NCCCN1CCCCC1)c1[nH]c2ccccc2c1Sc1ccc(Cl)cc1`: the AC50 under setting [1] was 12.6 µM [falling, partial curve, poor fit].
For the compound `Cc1oc(-c2ccc3c(c2)OCCO3)cc1C(=O)NC(CCC(=O)O)C(=O)O` (stereo unspecified), the AC50 runs as follows: (measured here: IkB-luc green channel) 0.398 µM [falling, partial curve]; (measured here: control luc red channel) 20 µM [falling, partial curve].
For `Cc1cc(C)nc(NS(=O)(=O)c2ccc(NC(=O)c3nc(SC(C)C)ncc3Cl)cc2)n1`, under setting [1], the concentration at half-maximal activity (AC50) is 12.6 µM [falling, partial curve, poor fit].
Still for that read-out and setting: the figure for `Cc1c(Cl)cccc1-n1ncc(C(=O)N2CCC(C)CC2)c1C1CCN(C(=O)OC(C)(C)C)CC1` is 12.6 µM [falling, partial curve].
Take `COc1ccc(NC(=O)CSc2nc(-c3ccccc3)[nH]c2-c2ccccc2)cc1OC`: the AC50 under setting [1] is 25.1 µM [falling, single point].
Consider `COc1ccccc1-n1c(SCC(=O)N2CCOCC2)nc(O)c(Cc2ccccc2)c1=O`, for which, under setting [1], the AC50 is 12.6 µM [falling, partial curve].
For the compound `CC(C)C(NS(=O)(=O)c1ccc2c(c1)oc(=O)n2C)C(=O)NCc1ccccc1` (stereo unspecified), the AC50 under setting [1] was 0.0251 µM [falling, full curve, poor fit].
On to `CC(=O)c1ccc(N2CCN(C(=O)c3cc4c(s3)-c3ccccc3OC4)CC2)cc1`, for which, under setting [1], the AC50 is 25.1 µM [falling, single point].
The same measure, in the same setting: the result for `N#Cc1c(NC(=O)CCn2cnc3ccccc3c2=O)oc(-c2ccccc2)c1-c1ccccc1` reads 5.01 µM [falling, full curve, poor fit]; that for `CCOC(=O)c1c(-c2ccccc2)csc1NC(=O)c1cc(-c2ccc(C)c(F)c2)on1`, 15.8 µM [falling, partial curve].
On the same count and under the same terms, the figure for `O=C(NC1CCCCCC1)C1c2ccccc2C(=O)N1Cc1ccccc1Cl` (stereo unspecified) is 1 µM [rising, full curve, poor fit]; for `CCN(CC)S(=O)(=O)c1ccc2c(c1)N(CC(=O)N1CCN(c3ccc(Cl)cc3)CC1)C(=O)CO2` it is 1.58 µM [rising, full curve, poor fit].
`Cc1ccc(-n2c3c(cc(C(=O)Nc4cccc(Cl)c4)c2=O)C(=O)CC(C)(C)C3)cc1`: the half-maximal activity concentration (AC50) under setting [1] is 7.94 µM [rising, single point].
Regarding `Cc1ccc(Cl)cc1N1CCN(C(=O)CCCCCn2c(=O)[nH]c3ccccc3c2=O)CC1`, the AC50 under setting [1] was 20 µM [falling, partial curve].
On to `CCc1ccc(NC(=O)C2CCCN(S(=O)(=O)c3c(C)noc3/C=C/N(C)C)C2)cc1` (stereo unspecified), for which the AC50 under setting [1] was 25.1 µM [falling, single point].
For `COc1ccccc1N1CCN(Cc2ccc(OC)c3ccccc23)CC1`, the AC50 under setting [1] was 12.6 µM [falling, partial curve].
Take `CC(C)OC(=O)c1cccnc1SCC(=O)Nc1ccc(C(F)(F)F)cc1Cl`: the AC50 under setting [1] is 7.94 µM [rising, full curve].
As for `O=C(c1ccco1)[C@@H]1[C@@H]2C(=O)N(c3ccc(F)cc3)C(=O)[C@@H]2C2c3ccccc3C=CN21` (stereo partly specified), the AC50 under setting [1] is 2 µM [falling, full curve].
Regarding `CCN1C(=O)c2ccccc2S(=O)(=O)c2ccc(C(=O)NCc3ccccc3Cl)cc21`, under setting [1], the AC50 is 25.1 µM [falling, single point].
Take `COc1cccc(CNC(=O)c2c(C)oc3nc(C)nc(N4CCOCC4)c23)c1`: the concentration at half-maximal activity (AC50) under setting [1] was 10 µM [falling, partial curve].
As for `CCOC(=O)C1CCN(C(=O)CSc2n[nH]c(-c3ccc(F)cc3)n2)CC1`, the AC50 under setting [1] was 31.6 µM [falling, single point].
With `O=C(Cn1c(=O)oc2cc(S(=O)(=O)N3CCCC3)ccc21)NCc1ccc(F)cc1`, the concentration at half-maximal activity (AC50) under setting [1] is 0.398 µM [falling, single point].
Consider `CCN(CC)c1ccc(NC(=O)CCCCCN2C(=O)c3ccccc3C2=O)cc1`, for which the AC50 under setting [1] was 15.8 µM [falling, partial curve].
As to `Cc1cc(C(=O)C(=O)Nc2nnc(C(C)C)s2)c(C)n1-c1ccccc1`, under setting [1], the AC50 is 7.94 µM [falling, partial curve].
The same measure, in the same setting: the result for `Cc1ccccc1NS(=O)(=O)c1ccc2[nH]c3c(c2c1)CCCCC3` reads 31.6 µM [falling, single point].
As to `O=C(Nc1sc2c(c1C(=O)O)CCCCC2)c1ccco1`, the AC50 under setting [1] was 0.02 µM [falling, full curve].
On the same count and under the same terms, the result for `Cc1ccc(Cl)cc1N1CCN(C(=O)c2ccc3nc(N4CCC(C)CC4)sc3c2)CC1` reads 10 µM [falling, partial curve]; that for `CCOc1ccccc1CNC(=O)CCn1ccc2cc(S(=O)(=O)N3CCCCC3)ccc21`, 15.8 µM [falling, partial curve].
In the case of `Cn1c(=O)c2sccc2n2c(CCCC(=O)Nc3ccc(Oc4ccc(Cl)cc4)cc3)nnc12`, the concentration at half-maximal activity (AC50) under setting [1] was 10 µM [falling, partial curve].

A word on the AC50: it is the concentration giving half of the maximal activity seen.

The record behind these values is PubChem BioAssay AID445 (National Center for Advancing Translational Sciences (NCATS), 2006).
